# Laboratory results from patent publication US5656452A, “NF-ATp, ' a T lymphocyte DNA-binding protein” (President and Fellows of Harvard College, priority 1993, dated 1997).
# Columns and labels:
# [1] = target: T1, NF-ATp (renatured from SDS gel, nuclear extract of stimulated Ar-5) (Mus musculus) (UniProt Q60591); test: competition with a labelled probe; conditions: 200-fold excess, protein in an extract
# T1 sequence (limits assumed): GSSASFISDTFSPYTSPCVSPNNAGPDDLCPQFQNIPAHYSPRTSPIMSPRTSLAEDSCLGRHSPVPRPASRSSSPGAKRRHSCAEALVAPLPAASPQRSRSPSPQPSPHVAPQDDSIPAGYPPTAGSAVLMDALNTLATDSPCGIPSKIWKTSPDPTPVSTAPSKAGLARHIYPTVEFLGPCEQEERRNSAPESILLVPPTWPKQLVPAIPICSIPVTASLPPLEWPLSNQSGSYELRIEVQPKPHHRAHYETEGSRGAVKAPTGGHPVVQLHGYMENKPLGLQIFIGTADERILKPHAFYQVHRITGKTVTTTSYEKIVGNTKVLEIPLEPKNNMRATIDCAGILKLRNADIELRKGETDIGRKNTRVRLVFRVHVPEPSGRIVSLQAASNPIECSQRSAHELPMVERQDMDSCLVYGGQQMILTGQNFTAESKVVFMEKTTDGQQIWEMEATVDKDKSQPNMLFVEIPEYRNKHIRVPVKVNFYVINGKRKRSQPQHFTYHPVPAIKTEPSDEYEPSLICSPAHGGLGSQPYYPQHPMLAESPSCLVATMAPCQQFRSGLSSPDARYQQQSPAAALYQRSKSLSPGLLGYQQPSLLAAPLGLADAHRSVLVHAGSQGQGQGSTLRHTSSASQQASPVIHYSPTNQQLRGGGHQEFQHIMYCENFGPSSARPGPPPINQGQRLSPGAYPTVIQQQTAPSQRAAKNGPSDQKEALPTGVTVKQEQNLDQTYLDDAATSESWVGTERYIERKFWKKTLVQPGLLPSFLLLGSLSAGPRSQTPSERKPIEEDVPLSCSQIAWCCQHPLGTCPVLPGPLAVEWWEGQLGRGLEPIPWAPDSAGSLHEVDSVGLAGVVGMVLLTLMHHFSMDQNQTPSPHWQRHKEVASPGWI
# [2] = target: T2, NF-ATp (renatured from SDS gel, Ar-5 hypotonic extract) (Mus musculus) (UniProt Q60591); test: competition with a labelled probe; conditions: 200-fold excess, protein in an extract
# T2 sequence (limits assumed): T1 sequence (limits assumed)
# [3] = target: T3, NF-ATp XS (464-aa recombinant fragment of murine NF-ATp) (Mus musculus) (UniProt Q60591); test: competition with a labelled probe; conditions: 200-fold excess competes with intermediate efficiency; purified recombinant protein
# T3 sequence: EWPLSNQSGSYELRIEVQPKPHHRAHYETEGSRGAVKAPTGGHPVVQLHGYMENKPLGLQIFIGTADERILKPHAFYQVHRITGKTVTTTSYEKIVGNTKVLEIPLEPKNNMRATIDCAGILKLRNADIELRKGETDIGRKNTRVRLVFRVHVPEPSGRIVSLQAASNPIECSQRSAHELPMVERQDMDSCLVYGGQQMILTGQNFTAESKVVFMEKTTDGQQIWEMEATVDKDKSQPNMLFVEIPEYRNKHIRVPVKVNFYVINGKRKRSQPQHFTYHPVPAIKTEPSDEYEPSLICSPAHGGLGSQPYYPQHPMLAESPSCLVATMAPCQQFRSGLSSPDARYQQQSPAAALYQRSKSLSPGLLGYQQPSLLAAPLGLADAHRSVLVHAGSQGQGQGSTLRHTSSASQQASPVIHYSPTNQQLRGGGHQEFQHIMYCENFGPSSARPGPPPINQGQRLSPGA
# [4] = target: T1, NF-ATp (renatured from SDS gel, nuclear extract of stimulated Ar-5) (Mus musculus); test: EMSA; conditions: poly(dI:dC), 84 mM NaCl, 20 mM KCl; fully self-competed; protein in an extract; label: 32P
# [5] = target: T2, NF-ATp (renatured from SDS gel, Ar-5 hypotonic extract) (Mus musculus); test: EMSA; conditions: poly(dI:dC), 84 mM NaCl, 20 mM KCl; fully self-competed; protein in an extract; label: 32P
sequence,measurement,setting,value
GCCCAAAGACCTTAATTTGTTTCATACAG (double strand) [M3],binding result,[1]; no competition,no binding
same,binding result,[2]; no competition,no binding
GCCCAAAGAGGAAAATGGACTTCATACAG (double strand) [M2],binding result,[1]; partial competition,binds more weakly
same,binding result,[3],binds more weakly
same,binding result,[2]; partial competition,binds more weakly
GCCCAAAGAGGAAAATTTGTTTATATCAG (double strand) [M1],binding result,[1]; complete competition,binds
same,binding result,[2]; complete competition,binds
GCCCAAAGAGGAAAATTTGTTTCATACAG (double strand),binding result,[4],binds
same,binding result,[5],binds

# For part of these data: The comparison behind a weaker result is the experiment's own reference, which may not be listed here. Tags and fusion partners may be left off the protein sequences shown. For part of these data: At least one result comes from cells or an extract, where the contact may be indirect. For part of these data: Negatives hold for the conditions tested.
